Assay results taken from patent EP3838286B1, “ANTIMICROBIAL PEPTIDE FROM POLISTES GALLICUS VENOM AND ITS ANALOGS” (Latoxan, priority 2019, dated 2021).
Square brackets hold non-standard residues; d marks the D form. Ends that are not written are not given here. Peptide text beside a SMILES is read from it.

Experiments:
BEAS = experiment: Cytotoxicity assay (resazurin); assay type: cell-based, human; details: IC50 BEAS divided by MIC P. aeruginosa
Experimental: (§1) Normal human cells used were BEAS-2B (ATCC CRL-9609), IMR-90 (ATCC CCL-186) and Human Umbilical Vein Endothelial Cells (HUVEC) (from Sigma-Aldrich) corresponding respectively to human normal lung epithelial, normal lung fibroblast cells and human normal endothelial cells. All cells except HUVEC cells were cultured in Dulbecco's modified essential medium (DMEM) supplemented with 10% fetal calf serum (FCS), 1% L-glutamine and 1% antibiotics (all from Invitrogen). HUVEC cells were cultured in specific endothelial media (from Sigma Aldrich). Cells were seeded onto […] maintained in a 5% CO2 incubator at 37 °C. Cells grown on 25 cm^2 flasks were detached using trypsin-EDTA solution (from Thermofisher), counted using Mallassez counting chamber and seeded into 96-well cell culture plates (Greiner bio-one) at approximately 10,000 cells per well. The cells were left to grow for 48-72 h at 37 °C in a 5% CO2 incubator until they reached confluence. Plates were then aspirated and increasing concentrations of peptides diluted in culture media were added to the cells for 48 h at 37 °C in a 5% CO2 incubator. At the end of the incubation, wells were emptied and cell viability was evaluated using Resazurin based in vitro toxicity assay kit (from Sigma-Aldrich) following manufacturer's instructions. Briefly, Resazurin stock solution was diluted 1:10 in sterile PBS containing calcium and magnesium (PBS, pH 7.4) and empty wells were filled with 100 µL of the diluted solution. After 4 h incubation at 37 °C, fluorescence intensity was measured using microplate reader (Synergy Mx, Biotek) with an excitation wavelength of 530 nm and an emission wavelength of 590 nm. The fluorescence values were normalized by the controls (buffer treated cells) and expressed as percent viability. The IC50 values of peptides on cell viability (i.e. the concentration of derivative causing a reduction of 50% of cell viability) were determined using GraphPad® Prism 7 software. t-Test and two way ANOVA analyses were used to address the significant differences between mean values with significance set at p < 0.05.

HUVEC = experiment: Cytotoxicity assay (resazurin); assay type: cell-based, human; details: IC50 HUVEC divided by MIC P. aeruginosa
Experimental: as §1

IMR90 = experiment: Cytotoxicity assay (resazurin); assay type: cell-based, human; details: IC50 IMR90 divided by MIC P. aeruginosa
Experimental: as §1

human erythrocytes = experiment: Hemolytic activity assay; assay type: cell-based
Experimental: The hemolytic activity of each peptide was determined by the leakage of hemoglobin from human erythrocytes (obtained from Divbioscience, NL) as previously described (Oyama et al., 2017 Biofilms Microbiomes, Dec 1;3:33).
Briefly, human erythrocytes were washed 3 times with phosphate buffer saline (PBS) and concentrated using centrifugation at 800 g for 5 min. Human erythrocytes were then resuspended in PBS at a final concentration of 8 %. 100 µl of human erythrocytes were then added per well of sterile 96 well microplate already containing 15 µl of serially diluted antimicrobials (1:2 in distilled water). After 1 h at 37°C, the microplate was centrifuged at 800 g for 5 min. 100 µl were then carefully collected and transferred to a new 96 well microplate and OD was measured at 405 nm. Hemolysis caused by peptides was expressed as percentage of hemolysis; Triton-X100 at 0.1 % (v:v) was used as positive control and gave 100 % hemolysis. Hemolysis rate was determined as below: Hemolysis rate (%) = (A−A2)/(A1−A2) × 100% [formula] where A is the absorbance of indicator mixtures with different factors, A1 and A2 are the positive control, and the negative control, respectively.

Molecule	Therapeutic index (IC50s compared to MIC P. aeruginosa) BEAS (BEAS)	Therapeutic index (IC50s compared to MIC P. aeruginosa) HUVEC (HUVEC)	Therapeutic index (IC50s compared to MIC P. aeruginosa) IMR90 (IMR90)	Therapeutic Index (MHC50/MIC) B. subtilis (human erythrocytes; MHC50 on human erythrocytes divided by MIC for B. subtilis)	Therapeutic Index (MHC50/MIC) S. aureus (human erythrocytes; MHC50 on human erythrocytes divided by MIC for S. aureus)
CC[C@@H](C)[C@@H](N)C(=O)N[C@H](CC(C)C)C(=O)N[C@H](CCCCN)C(=O)N[C@H](C)C(=O)N[C@@H](C(=O)N[C@H](CCCCN)C(=O)N[C@H](CCCCN)C(=O)N[C@H](CC(C)C)C(=O)N[C@H](CC(C)C)C(=O)N[C@H](CCCCN)C(N)=O)[C@H](C)CC [(i1k10*) enantio, ilkaikkllk] (H-[dI][dL][dK][dA][dI][dK][dK][dL][dL][dK]-NH2)	232.3	218.5	116.7		
CC[C@@H](C)[C@@H](N)C(=O)N[C@H](CC(C)C)C(=O)N[C@H](CCCCN)C(=O)N[C@H](C)C(=O)N[C@@H](C(=O)N[C@H](CCCCN)C(=O)N[C@H](CCCCN)C(=O)N[C@H](CC(C)C)C(=O)N[C@H](CC(C)C)C(=O)N[C@H](CCCCN)C(=O)N[C@H](CC(N)=O)C(N)=O)[C@H](C)CC [LTX-D (gallicune-1), ilkaikkllkn] (H-[dI][dL][dK][dA][dI][dK][dK][dL][dL][dK][dN]-NH2)	562.2	579.3	435.4		
CC[C@@H](C)[C@@H](N)C(=O)N[C@@H](CC(C)C)C(=O)N[C@@H](CCCCN)C(=O)N[C@@H](C)C(=O)N[C@H](C(=O)N[C@@H](CCCCN)C(=O)N[C@@H](CCCCN)C(=O)N[C@@H](CC(C)C)C(=O)N[C@@H](CC(C)C)C(=O)N[C@@H](CCCCN)C(=O)N[C@H](CC(N)=O)C(N)=O)[C@@H](C)CC [LTX-gallicune-1(i1D-n11D)] (H-[dI]LKAIKKLLK[dN]-NH2)	260.5	290.3	241.4		
RLLGLWLW-NH2 [LTX-gallicune-2 (R1W8)]				18	18
